Laboratory results taken from PubChem BioAssay AID624291 (National Center for Advancing Translational Sciences (NCATS), 2012).
In all, about 350,000 compounds went through this assay and about 220 (0.063%) were called active. Inconclusive results, whose numbers are uncertain, are shown with a selection of clear calls. Calls come from the whole dose curve; as a rule, active = well fitted activation curve with a large enough effect; inconclusive = small, poorly fitted or top-dose-only effect; inactive = no such curve, though single readings can be large or run the other way. Potencies of inconclusive entries are doubtful fits and often do not repeat.

Experiment: qHTS for Activators of Integrin-Mediated Alleviation for Muscular Dystrophy; note: nearly all actives have a fitted effect of over 60% in size;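 for activation: 100% = response of the positive control SU9516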
Settings: alpha7betagal myoblasts, beta-gal FDG fluorescence, 48 h; activation: at 38.3 µM (top of the series)
How it was run: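 alpha7betagal+/- myoblasts (passage 13, 250/well) treated 48 h at 37C with compounds at 1:260 dilution of DMSO stock. Lysed, then beta-galactosidase activity read as FDG fluorescence (ex 480/em 540) after 30 min, with pre-read for autofluorescence.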
Potency is the fitted concentration of half-maximal effect.

Potency, inconclusive:
c1ccc(CSc2nnc(-c3c[nH]c4ccccc34)o2)cc1 28.2 µM [activator, single point], Cc1cc(C)c(NC(=S)N(CCN(C)C)Cc2cccs2)c(C)c1 2.82 µM [activator, single point], CCN1C(=O)/C(=C/c2cn(-c3ccccc3)nc2-c2cccnc2)SC1=S 5.01 µM [activator, single point], NC(=O)C1CCCN(C(=O)CCC(=O)c2cccs2)C1 (stereo not given) 31.6 µM [activator, partial curve, poor fit], Cc1ccccc1C(=O)N1CC(=O)Nc2ccc(F)cc2C1c1ccc(F)cc1 (stereo not given) 0.447 µM [activator, full curve, poor fit], CCN1CCN(c2nc(NCCO)c3ccccc3n2)CC1 14.1 µM [activator, partial curve, poor fit], CCN1C(=O)[C@@H]2[C@@H](c3ccc(-c4ccc(F)cc4)cc3)N3CCCC[C@@]3(C(=O)OC)[C@@H]2C1=O 5.01 µM [activator, single point], COC(=O)[C@H](Cc1ccccc1)NC(=O)c1ccc2ccccc2n1 28.2 µM [activator, partial curve, poor fit], COc1cc(CCC(=O)Nc2c(C(=O)N3CCN(c4ccccc4OC)CC3)oc3ccccc23)on1 5.01 µM [activator, single point], O=c1c(-c2ccc3c(c2)OCCO3)coc2cc(OC3OC(CO)C(O)C(O)C3O)ccc12 (stereo not given) 5.62 µM [activator, partial curve, poor fit], O=C(Nc1ccc(S(=O)(=O)Nc2ncccn2)cc1)c1cccc(S(=O)(=O)N2CCOCC2)c1 2.51 µM [activator, partial curve, poor fit], NNC(=O)CN1C(c2ccccc2)=Nc2ccc(Br)cc2C1c1ccccc1 (stereo not given) 28.2 µM [activator, single point], Cc1ccc(C(c2nnnn2C2CCCC2)N2CCN(c3nc4ccccc4s3)CC2)cc1 (stereo not given) 11.2 µM [activator, partial curve, poor fit], S=c1[nH]nc(CSCCOc2ccc(Cl)cc2Cl)o1 3.55 µM [activator, single point], COc1ccccc1C(=O)Nc1ccc(-c2nnn(CC(=O)N3CCOCC3)n2)cc1 1 µM [activator, full curve, poor fit], CN(C)/C=C/C(=O)c1ccc(Br)s1 10 µM [activator, partial curve, poor fit], CN(C(=O)COC(=O)C1COc2ccccc2O1)C1(C#N)CCCCC1 (stereo not given) 3.16 µM [activator, partial curve, poor fit], O=C(COC(=O)c1cccc(Cl)c1)NC1CCCCCCC1 8.91 µM [activator, partial curve, poor fit], CC(C)OC(=O)CSc1nnc(-c2ccccn2)n1N 2 µM [activator, partial curve, poor fit], CC1CCN(C(CNS(=O)(=O)c2ccccc2)c2ccccc2)CC1 (stereo not given) 12.6 µM [activator, partial curve, poor fit], COc1ccc(CNc2ncc(-c3ccc(Cl)cc3)n2C)c(OC)c1OC 11.2 µM [activator, single point], COCCn1nnnc1CN1CCOCC1 28.2 µM [activator, single point], O=C(CS(=O)(=O)c1ccccc1)NCc1ccccc1 11.2 µM [activator, partial curve, poor fit], Cc1[nH]c2ccccc2c1N=Nc1ccccc1C(=O)O 22.4 µM [activator, partial curve, poor fit], Cc1ccc(OCc2nnc(SCC(=O)N3c4ccccc4Sc4ccc(Cl)cc43)o2)cc1 1.58 µM [activator, full curve, poor fit], NN(CCO)C(=S)Nc1ccc(Cl)cc1 5.01 µM [activator, single point], CCc1ccccc1Nc1nc(N)nc(COC(=O)C2=COCCO2)n1 28.2 µM [activator, single point], CC(C)(C)NC(=O)C(c1cccs1)N(CC1CCCO1)C(=O)c1ccc(-c2ccccc2)[nH]1 (stereo not given) 1 µM [activator, partial curve, poor fit], CC1C(=O)OC(c2ccc(Cl)cc2)C(C)(C)C1=O (stereo not given) 2.24 µM [activator, partial curve, poor fit], Cc1ccc(NC(=O)COC(=O)CN2C(=O)C3CCCCC3C2=O)cc1C (stereo not given) 2.51 µM [activator, single point], CCCCN(S(=O)(=O)c1ccccc1)S(=O)(=O)c1ccccc1 2.82 µM [activator, single point], CCc1ccc(-c2nc3ccc(Br)cc3c(C(=O)O)c2C)s1 2.24 µM [activator, single point], CCc1cc2c(=O)oc(-c3ccc(F)cc3)nc2s1 2.82 µM [activator, single point], O=C(Cc1ccc(Cl)cc1)N/N=C/c1cccs1 14.1 µM [activator, single point], O=C(NCCCCc1ccccc1)c1ccccc1 31.6 µM [activator, partial curve, poor fit], O=C(O)c1ccc2c(c1)SC1=NS(=O)(=O)CCN12 2.82 µM [activator, single point], CCc1ccc(S(=O)(=O)Nc2ccc(Cl)cn2)cc1 12.6 µM [activator, partial curve, poor fit], COc1ccc(CC(=O)OCc2nnc(-c3ccccc3)o2)cc1 14.1 µM [activator, single point], O=C1/C(=C/c2ccccn2)COc2ccccc21 1 µM [activator, partial curve, poor fit], CCc1nn(CCCC(=O)NCc2ccccc2Br)c(=O)c2cc3occc3n12 11.2 µM [activator, partial curve], Cc1ccc(S(=O)(=O)Nc2nnc(C(C)(C)C)s2)cc1 3.55 µM [activator, single point], Cc1cc(C)cc(NC(=O)c2ccc(NC(=O)c3ccco3)cc2)c1 12.6 µM [activator, single point], NC(=O)c1ccc(OCC(F)(F)F)nc1 3.16 µM [activator, full curve, poor fit], CC1CN(Cc2ccccc2)c2nc3c(c(=O)n(CC(=O)O)c(=O)n3C)n2C1 (stereo not given) 0.447 µM [activator, full curve, poor fit], COc1ccc(N2CCN(C(CNS(=O)(=O)c3ccc4c(c3)OCCO4)c3ccco3)CC2)cc1 (stereo not given) 12.6 µM [activator, single point]

activation, inactive:
Cc1cc(C(=O)N/N=C/c2ccc(C)s2)n[nH]1 -9.78%, O=C(CN1CCN(c2ccccc2)CC1)N1CCc2ccccc21 -11.2%, CCOc1ccc2nc(NC(=O)c3ccc(C)o3)sc2c1 -19.8%, Cc1cc(N2CCN(C(c3ccccc3)c3ccccc3)CC2)n2ncnc2n1 5.59%, COc1cc(-c2noc(C)c2C#Cc2ccccn2)cc(OC)c1OC -18.9%, CCOC(=O)c1cn(CC(=O)Nc2cccc(Cl)c2)nn1 13.6%, CC1CCCCN1Cc1c(C#N)c2ccccc2n1C (stereo not given) -24.7%, O=C(CCc1ccc(S(=O)(=O)NCc2ccccc2)cc1)NCc1cccnc1 18.2%, Cc1ccccc1NC(=O)C1CC(=O)N(c2ccccc2F)C1 (stereo not given) -8.37%, CC(=O)c1cccc(Nc2nc(N3CCOCC3)nc(N3CCOCC3)n2)c1 -11.9%, NC1(C#Cc2ccc3oc(=O)c(-n4cc(C5(O)CCCCC5)nn4)cc3c2)CCCCC1 -8.34%, Cc1cccc(C(=O)N/N=C/c2ccc(OCC(=O)N3CCCCC3)cc2)c1 -5.1%, COc1ccc(NC(=O)c2cccs2)cc1C(=O)N1CCN(c2ccccc2)CC1 -7.58%, CCc1cccc(C)c1NC(=O)c1cccc(N(C)C)c1 -42.9%, C=CCN1C(=O)N(/C=C/C)c2cccc3cccc1c23 13.2%, Cc1nn(-c2ccccc2)c(C)c1/C=N/NC(=O)c1cc(-c2cccs2)[nH]n1 -29.1%, COc1ccc(C(=O)Nc2ccc(SC(F)F)cc2)cc1 7.17%, Cc1ccc2nc(N3C(=O)C(O)=C(C(=O)c4ccco4)C3c3ccc(C)o3)sc2c1 (stereo not given) -20.6%, Cc1ccc(NC(=O)CN2C(=O)NC3(CCCCC3C)C2=O)cc1S(=O)(=O)N1CCCCC1 (stereo not given) -6.8%, Cc1ccc(-c2nc3c(Cl)cc(Cl)cc3c(=O)n2O)cc1 -5.7%, COc1cccc(C(=O)NCCS(=O)(=O)N2CCCC2)c1 -9.02%, COc1ccc2oc(=O)c(C(=O)NCc3ccc(F)cc3)cc2c1 14.4%, CCCc1ccc2oc(C(=O)N(Cc3nccn3C)C(C)C)c(C)c2c1 -21.8%, COCc1cc(C)n(CC(=O)Nc2ccccc2C(=O)OC)c(=O)c1C#N 1.88%

activation, inconclusive:
O=C(COc1ccccc1/C=C1/NC(=O)NC1=O)Nc1ccccc1 -27.4% [activator]
